This is an account of results in PMC10219916.

The chains behind the UniProt entries cited, without tags or fusion partners.
UniProt P01106: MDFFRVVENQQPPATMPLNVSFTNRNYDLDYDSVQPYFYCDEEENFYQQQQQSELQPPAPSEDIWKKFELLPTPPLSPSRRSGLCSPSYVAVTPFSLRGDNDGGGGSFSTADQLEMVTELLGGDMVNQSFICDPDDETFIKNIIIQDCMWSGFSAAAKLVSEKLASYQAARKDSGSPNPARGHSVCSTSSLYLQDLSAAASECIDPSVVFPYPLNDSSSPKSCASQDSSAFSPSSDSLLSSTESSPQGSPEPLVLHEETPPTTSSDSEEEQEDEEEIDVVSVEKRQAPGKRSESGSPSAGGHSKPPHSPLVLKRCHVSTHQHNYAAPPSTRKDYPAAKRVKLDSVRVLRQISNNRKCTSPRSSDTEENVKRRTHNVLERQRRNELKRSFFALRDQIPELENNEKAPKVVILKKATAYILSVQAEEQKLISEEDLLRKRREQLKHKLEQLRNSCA

One assay concerns the target T1, Flag-ATAD2 (human) (UniProt Q6PL18).
T1 sequence: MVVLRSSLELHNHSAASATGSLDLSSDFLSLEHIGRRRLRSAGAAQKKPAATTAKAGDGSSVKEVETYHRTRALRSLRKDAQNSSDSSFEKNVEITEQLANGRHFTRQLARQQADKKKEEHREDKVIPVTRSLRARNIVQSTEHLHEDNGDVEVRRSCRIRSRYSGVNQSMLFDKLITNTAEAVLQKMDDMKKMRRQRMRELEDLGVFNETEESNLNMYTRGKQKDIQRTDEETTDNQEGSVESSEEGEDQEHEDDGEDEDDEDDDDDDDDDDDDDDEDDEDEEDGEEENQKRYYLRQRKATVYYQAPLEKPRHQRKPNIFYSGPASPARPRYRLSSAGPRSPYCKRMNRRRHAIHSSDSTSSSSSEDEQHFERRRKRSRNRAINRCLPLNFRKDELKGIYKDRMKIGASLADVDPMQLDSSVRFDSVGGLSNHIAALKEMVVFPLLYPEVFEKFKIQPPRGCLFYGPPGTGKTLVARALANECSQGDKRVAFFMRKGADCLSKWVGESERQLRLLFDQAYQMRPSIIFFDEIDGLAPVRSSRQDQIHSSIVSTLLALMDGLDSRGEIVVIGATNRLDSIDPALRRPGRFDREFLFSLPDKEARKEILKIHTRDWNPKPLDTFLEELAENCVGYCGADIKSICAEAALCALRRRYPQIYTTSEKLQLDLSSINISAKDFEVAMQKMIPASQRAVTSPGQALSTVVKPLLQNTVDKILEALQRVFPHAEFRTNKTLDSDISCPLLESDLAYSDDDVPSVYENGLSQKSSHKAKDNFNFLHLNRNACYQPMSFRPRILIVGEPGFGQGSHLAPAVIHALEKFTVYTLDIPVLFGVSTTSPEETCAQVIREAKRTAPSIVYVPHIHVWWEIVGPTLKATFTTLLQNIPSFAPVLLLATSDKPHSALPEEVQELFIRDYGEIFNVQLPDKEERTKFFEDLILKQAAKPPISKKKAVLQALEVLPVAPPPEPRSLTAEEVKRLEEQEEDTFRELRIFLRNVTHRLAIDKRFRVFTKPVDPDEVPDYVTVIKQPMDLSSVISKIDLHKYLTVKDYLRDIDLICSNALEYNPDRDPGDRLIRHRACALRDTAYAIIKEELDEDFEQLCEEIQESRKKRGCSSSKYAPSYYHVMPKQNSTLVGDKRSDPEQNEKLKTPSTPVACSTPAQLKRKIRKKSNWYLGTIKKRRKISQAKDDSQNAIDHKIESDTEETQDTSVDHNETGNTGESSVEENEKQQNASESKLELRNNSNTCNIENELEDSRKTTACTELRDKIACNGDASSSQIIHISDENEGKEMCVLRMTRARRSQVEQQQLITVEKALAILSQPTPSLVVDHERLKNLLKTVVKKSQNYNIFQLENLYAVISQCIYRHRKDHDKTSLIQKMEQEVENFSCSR
As to the kind of experiment: co-IP; HEK293T co-transfected with Flag-ATAD2 and HA-c-Myc, 48 h; IP lysis buffer; anti-Flag magnetic beads, eluted with 3X Flag peptide; immunoblot. On the technique in general: In western blotting, separated proteins are transferred to a membrane and probed.

In assay [1] the target is T2, ATPase family AAA domain-containing protein 2 (ATAD2), endogenous (human (endogenous; cell line not named, all cell lines of the paper are human)) (UniProt Q6PL18).
T2 sequence: T1 sequence
Nature of the assay: co-IP; endogenous proteins; cells lysed in IP lysis buffer (20 mM Tris-HCl, 150 mM NaCl, 1% Triton X-100, pH 7.5); anti-ATAD2, anti-c-Myc or control IgG overnight at 4 °C, protein A + G agarose beads 4 h; immunoblot.

Assay [2] concerns the target c-Myc, endogenous (human (endogenous; cell line not named, all cell lines of the paper are human)) (UniProt P01106). The description is as above.

These are yes or no findings as the source states them, for the method shown. In cells and extracts the contact can be indirect. Some entries that bind do so weakly or less than the wild type. For part of these data: Tags and fused reporters may be left off the sequences shown.

For HA-c-Myc (from UniProt P01106 1-454), the binding result in the assay with Flag-ATAD2 (human) is given as “binds”.
Consider “c-Myc, endogenous (from UniProt P01106 1-454)”, for which, in assay [1], the binding result is “binds”.

B1: ATPase family AAA domain-containing protein 2 (ATAD2), endogenous (protein, UniProt Q6PL18 1-1390)
chain: T1 sequence
In the case of B1, the binding result in assay [2] is reported as “binds”.
